# Results from paper PMC11044178.
# Sequences of proteins named here, by UniProt entry; tags and fusion partners are left off. Residues count along the entry.
# UniProt Q07011, residues 24-255: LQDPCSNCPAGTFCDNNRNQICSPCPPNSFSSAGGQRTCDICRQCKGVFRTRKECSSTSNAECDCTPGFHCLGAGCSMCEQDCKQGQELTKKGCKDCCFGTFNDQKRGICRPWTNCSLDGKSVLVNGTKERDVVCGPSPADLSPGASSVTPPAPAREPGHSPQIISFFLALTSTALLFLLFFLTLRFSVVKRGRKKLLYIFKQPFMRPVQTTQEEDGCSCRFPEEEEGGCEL
# No constants are given. Whether binding was seen depends on the method and setting. In cells and extracts the contact can be indirect. Here binding means that the protein was enriched with, or labelled near, the bait; the list need not be complete. A no says only that the protein was not detected with the bait.
# B1: transforming growth factor β–activated kinase (TAK) (protein, UniProt O43318 1-606)
# chain: MSTASAASSSSSSSAGEMIEAPSQVLNFEEIDYKEIEVEEVVGRGAFGVVCKAKWRAKDVAIKQIESESERKAFIVELRQLSRVNHPNIVKLYGACLNPVCLVMEYAEGGSLYNVLHGAEPLPYYTAAHAMSWCLQCSQGVAYLHSMQPKALIHRDLKPPNLLLVAGGTVLKICDFGTACDIQTHMTNNKGSAAWMAPEVFEGSNYSEKCDVFSWGIILWEVITRRKPFDEIGGPAFRIMWAVHNGTRPPLIKNLPKPIESLMTRCWSKDPSQRPSMEEIVKIMTHLMRYFPGADEPLQYPCQYSDEGQSNSATSTGSFMDIASTNTSNKSDTNMEQVPATNDTIKRLESKLLKNQAKQQSESGRLSLGASRGSSVESLPPTSEGKRMSADMSEIEARIAATTAYSKPKRGHRKTASFGNILDVPEIVISGNGQPRRRSIQDLTVTGTEPGQVSSRSSSPSVRMITTSGPTSEKPTRSHPWTPDDSTDTNGSDNSIPMAYLTLDHQLQPLAPCPNSKESMAVFEQHCKMAQEYMKVQTEIALLLQRKQELVAELDQDEKDQQNTSRLVQEHKKLLDENKSLSTYYQQCKKQLEVIRSQQQKRQGTS
# B2: TAB2 (protein, UniProt Q9NYJ8 1-693)
# chain: MAQGSHQIDFQVLHDLRQKFPEVPEVVVSRCMLQNNNNLDACCAVLSQESTRYLYGEGDLNFSDDSGISGLRNHMTSLNLDLQSQNIYHHGREGSRMNGSRTLTHSISDGQLQGGQSNSELFQQEPQTAPAQVPQGFNVFGMSSSSGASNSAPHLGFHLGSKGTSSLSQQTPRFNPIMVTLAPNIQTGRNTPTSLHIHGVPPPVLNSPQGNSIYIRPYITTPGGTTRQTQQHSGWVSQFNPMNPQQVYQPSQPGPWTTCPASNPLSHTSSQQPNQQGHQTSHVYMPISSPTTSQPPTIHSSGSSQSSAHSQYNIQNISTGPRKNQIEIKLEPPQRNNSSKLRSSGPRTSSTSSSVNSQTLNRNQPTVYIAASPPNTDELMSRSQPKVYISANAATGDEQVMRNQPTLFISTNSGASAASRNMSGQVSMGPAFIHHHPPKSRAIGNNSATSPRVVVTQPNTKYTFKITVSPNKPPAVSPGVVSPTFELTNLLNHPDHYVETENIQHLTDPTLAHVDRISETRKLSMGSDDAAYTQALLVHQKARMERLQRELEIQKKKLDKLKSEVNEMENNLTRRRLKRSNSISQIPSLEEMQQLRSCNRQLQIDIDCLTKEIDLFQARGPHFNPSAIHNFYDNIGFVGPVPPKPKDQRSIIKTPKTQDTEDDEGAQWNCTACTFLNHPALIRCEQCEMPRHF
# B3: TAB1 (protein, UniProt Q15750 1-504)
# chain: MAAQRRSLLQSEQQPSWTDDLPLCHLSGVGSASNRSYSADGKGTESHPPEDSWLKFRSENNCFLYGVFNGYDGNRVTNFVAQRLSAELLLGQLNAEHAEADVRRVLLQAFDVVERSFLESIDDALAEKASLQSQLPEGVPQHQLPPQYQKILERLKTLEREISGGAMAVVAVLLNNKLYVANVGTNRALLCKSTVDGLQVTQLNVDHTTENEDELFRLSQLGLDAGKIKQVGIICGQESTRRIGDYKVKYGYTDIDLLSAAKSKPIIAEPEIHGAQPLDGVTGFLVLMSEGLYKALEAAHGPGQANQEIAAMIDTEFAKQTSLDAVAQAVVDRVKRIHSDTFASGGERARFCPRHEDMTLLVRNFGYPLGEMSQPTPSPAPAAGGRVYPVSVPYSSAQSTSKTSVTLSLVMPSQGQMVNGAHSASTLDEATPTLTNQSPTLTLQSTNTHTQSSSSSSDGGLFRSRPAHSLPPGEDGRVEPYVDFAEFYRLWSVDHGEQSVVTAP
# B4: TAB3 (protein, UniProt Q8N5C8 1-712)
# chain: MAQSSPQLDIQVLHDLRQRFPEIPEGVVSQCMLQNNNNLEACCRALSQESSKYLYMEYHSPDDNRMNRNRLLHINLGIHSPSSYHPGDGAQLNGGRTLVHSSSDGHIDPQHAAGKQLICLVQEPHSAPAVVAATPNYNPFFMNEQNRSAATPPSQPPQQPSSMQTGMNPSAMQGPSPPPPPPSYMHIPRYSTNPITVTVSQNLPSGQTVPRALQILPQIPSNLYGSPGSIYIRQTSQSSSGRQTPQSTPWQSSPQGPVPHYSQRPLPVYPHQQNYQPSQYSPKQQQIPQSAYHSPPPSQCPSPFSSPQHQVQPSQLGHIFMPPSPSTTPPHPYQQGPPSYQKQGSHSVAYLPYTASSLSKGSMKKIEITVEPSQRPGTAINRSPSPISNQPSPRNQHSLYTATTPPSSSPSRGISSQPKPPFSVNPVYITYTQPTGPSCTPSPSPRVIPNPTTVFKITVGRATTENLLNLVDQEERSAAPEPIQPISVIPGSGGEKGSHKYQRSSSSGSDDYAYTQALLLHQRARMERLAKQLKLEKEELERLKSEVNGMEHDLMQRRLRRVSCTTAIPTPEEMTRLRSMNRQLQINVDCTLKEVDLLQSRGNFDPKAMNNFYDNIEPGPVVPPKPSKKDSSDPCTIERKARRISVTSKVQADIHDTQAAAADEHRTGSTQSPRTQPRDEDYEGAPWNCDSCTFLNHPALNRCEQCEMPRYT
# B5: TRAF1 (protein, UniProt Q13077 1-416)
# chain: MASSSGSSPRPAPDENEFPFGCPPTVCQDPKEPRALCCAGCLSENPRNGEDQICPKCRGEDLQSISPGSRLRTQEKAHPEVAEAGIGCPFAGVGCSFKGSPQSVQEHEVTSQTSHLNLLLGFMKQWKARLGCGLESGPMALEQNLSDLQLQAAVEVAGDLEVDCYRAPCSESQEELALQHFMKEKLLAELEGKLRVFENIVAVLNKEVEASHLALATSIHQSQLDRERILSLEQRVVELQQTLAQKDQALGKLEQSLRLMEEASFDGTFLWKITNVTRRCHESACGRTVSLFSPAFYTAKYGYKLCLRLYLNGDGTGKRTHLSLFIVIMRGEYDALLPWPFRNKVTFMLLDQNNREHAIDAFRPDLSSASFQRPQSETNVASGCPLFFPLSKLQSPKHAYVKDDTMFLKCIVETST
# B6: IKKβ (protein, UniProt O14920 1-756)
# chain: MSWSPSLTTQTCGAWEMKERLGTGGFGNVIRWHNQETGEQIAIKQCRQELSPRNRERWCLEIQIMRRLTHPNVVAARDVPEGMQNLAPNDLPLLAMEYCQGGDLRKYLNQFENCCGLREGAILTLLSDIASALRYLHENRIIHRDLKPENIVLQQGEQRLIHKIIDLGYAKELDQGSLCTSFVGTLQYLAPELLEQQKYTVTVDYWSFGTLAFECITGFRPFLPNWQPVQWHSKVRQKSEVDIVVSEDLNGTVKFSSSLPYPNNLNSVLAERLEKWLQLMLMWHPRQRGTDPTYGPNGCFKALDDILNLKLVHILNMVTGTIHTYPVTEDESLQSLKARIQQDTGIPEEDQELLQEAGLALIPDKPATQCISDGKLNEGHTLDMDLVFLFDNSKITYETQISPRPQPESVSCILQEPKRNLAFFQLRKVWGQVWHSIQTLKEDCNRLQQGQRAAMMNLLRNNSCLSKMKNSMASMSQQLKAKLDFFKTSIQIDLEKYSEQTEFGITSDKLLLAWREMEQAVELCGRENEVKLLVERMMALQTDIVDLQRSPMGRKQGGTLDDLEEQARELYRRLREKPRDQRTEGDSQEMVRLLLQAIQSFEKKVRVIYTQLSKTVVCKQKALELLPKVEEVVSLMNEDEKTVVRLQEKRQKELWNLLKIACSKVRGPVSGSPDSMNASRLSQPGQLMSQPSTASNSLPEPAKKSEELVAEAHNLCTLLENAIQDTVREQDQSFTALDWSWLQTEEEEHSCLEQAS
# Molecular target: CD137 (4-1BB), stably transfected in Jurkat cells (UniProt Q07011)
# Assay: affinity purification with mass spectrometry; CD137 stably transfected Jurkat cells, MG132, stimulated on CD137L-Fc-coated plates 15 min; 1% Brij96 lysates; IP with anti-CD137 6B4 on magnetic microbeads against control IgG; LC-MS/MS
row,binding,Binder
1,no binding,B1
2,no binding,B2
3,no binding,B3
4,no binding,B4

# Molecular target: CD137 (4-1BB, TNFRSF9) (human (endogenous in primary CD8 T cells)) (UniProt Q07011)
# Assay: affinity purification with mass spectrometry; preactivated primary human CD8 T cells, MG132, resting or 15 min at 37°C on plates coated with CD137L, anti-CD3 or both (part left on ice); 1% Brij96 lysates; IP with anti-CD137 6B4 on magnetic microbeads against control IgG; tryptic digest, LC-MS/MS
row,binding,Binder
1,no binding,B1
2,no binding,B2
3,no binding,B3
4,no binding,B4
5,binds,B5
6,binds,B6
